From patent publication US11793208B2, “Antimicrobial treatment of animal carcasses and food products” (EVONIK OPERATIONS GMBH, priority 2017, dated 2023)

Legend:
[1] = Color of treated poultry offal by visual inspection; settings: 8-10 seconds
[2] = Water holding capacity of lamb livers treated with PAA solutions; settings: 1 hour at 22° C.; for Δ Wf, % (WHC): drip dry 1 hour
[3] = PAA 100 ppm, pH 7.5 (sodium carbonate)
[4] = PAA 100 ppm, pH 8.5 (sodium carbonate)
[5] = PAA 500 ppm, pH 7.5 (sodium carbonate)
[6] = PAA 500 ppm, pH 8.5 (sodium carbonate)

CC(=O)OO [PAA, Peracetic acid]
Color ([1]; Gizzards, 840 ppm PAA adjusted to pH 10.2 with sodium hydroxide): natural
Color ([1]; Gizzards, 840 ppm PAA, pH 3.4): bleached
Color ([1]; Livers, 840 ppm PAA adjusted to pH 10.2 with sodium hydroxide): natural
Color ([1]; Livers, 840 ppm PAA, pH 3.4): bleached
Δ WS, % ([2]; PAA 100 ppm, pH 4.1): 6.7%
Δ Wf, % (WHC) ([2]; PAA 100 ppm, pH 4.1): 2.2%
Δ WS, % [2, 3]: 8.5%
Δ Wf, % (WHC) [2, 3]: 7.4%
Δ WS, % [2, 4]: 9.1%
Δ Wf, % (WHC) [2, 4]: 4.7%
Δ WS, % ([2]; PAA 500 ppm, pH 3.3): 6.4%
Δ Wf, % (WHC) ([2]; PAA 500 ppm, pH 3.3): 0.4%
Δ WS, % [2, 5]: 6.7%
Δ Wf, % (WHC) [2, 5]: 3.1%
Δ WS, % [2, 6]: 7.9%
Δ Wf, % (WHC) [2, 6]: 4.0%
